{"source": "PubChem BioAssay AID720505, Drosophila RNAi Screening Center | 2013", "purpose": "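Fly regulators or components of the CRAC channel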 (primary screen)", "cell system": "Drosophila S2R+ cells", "knock-down reagent": "long dsRNA against Drosophila genes", "treatment": "thapsigargin (2 µM) in calcium-free buffer to empty internal stores, then 2 mM calcium added back", "measurement": "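Fluo-4 signal in 384-well plates read on a FLIPR after thapsigargin (2 µM, calcium-free) store depletion and 2 mM calcium add-back; unnormalised mean endpoint per well; screen run twice, selected wells retested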", "scale": "calcium signal: higher = more calcium entry after store depletion", "hit rule": "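Knock-downs counted as hits when calcium entry dropped relative to STIM1 positive and Rho1 negative controls present on each plate; roughly 1500 genes called, with reductions of differing size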", "calls": "active = called as lowering calcium entry; inactive = not called", "note": "The screen tested about 20,000 reagents; shown is an unselected part of those with a known target gene and a result. Of all reagents, about 2,100 (10%) are marked active. 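Raw plate signals without normalisation; calls rest on control-based scores that were not deposited; replicate 2 separates called from uncalled poorly.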 Reagents against one gene are numbered here. Not stated in the record: the amount of reagent, the time to read-out."}
{"predicted target": "CG17738", "reagent no.": 1, "calcium signal, replicate 1": 53.5, "calcium signal, replicate 2": 105, "Call": "active"}
{"predicted target": "CG17801", "reagent no.": 1, "calcium signal, replicate 1": 123, "calcium signal, replicate 2": 111, "Call": "inactive"}
{"predicted target": "HP1D3csd (Heterochromatin Protein 1D3 chromoshadow domain)", "reagent no.": 1, "calcium signal, replicate 1": 78.4, "calcium signal, replicate 2": 168, "Call": "active"}
{"predicted target": "Nrx-1 (Neurexin 1)", "reagent no.": 1, "calcium signal, replicate 1": 143, "calcium signal, replicate 2": 235, "Call": "inactive"}
{"predicted target": "CG1951", "reagent no.": 1, "calcium signal, replicate 1": 77.1, "calcium signal, replicate 2": 96.4, "Call": "inactive"}
{"predicted target": "Adss (Adenylosuccinate synthetase)", "reagent no.": 1, "calcium signal, replicate 1": 201, "calcium signal, replicate 2": 340, "Call": "inactive"}
{"predicted target": "CG2063", "reagent no.": 1, "calcium signal, replicate 1": 116, "calcium signal, replicate 2": 110, "Call": "inactive"}
{"predicted target": "Rpt6 (Regulatory particle triple-A ATPase 6)", "reagent no.": 1, "calcium signal, replicate 1": 225, "calcium signal, replicate 2": 157, "Call": "inactive"}
{"predicted target": "Vps11 (Vacuolar protein sorting 11)", "reagent no.": 1, "Call": "active"}
{"predicted target": "Vps11 (Vacuolar protein sorting 11)", "reagent no.": 2, "calcium signal, replicate 1": 213, "calcium signal, replicate 2": 104, "Call": "inactive"}
{"predicted target": "Rheb (Ras homolog enriched in brain)", "reagent no.": 1, "calcium signal, replicate 1": 83.7, "calcium signal, replicate 2": 119, "Call": "inactive"}
{"predicted target": "Rab4", "reagent no.": 1, "calcium signal, replicate 1": 131, "calcium signal, replicate 2": 91.8, "Call": "inactive"}

Laid out differently: results already given
predicted target,reagent no.,"calcium signal, replicate 1","calcium signal, replicate 2",Call
CG1951,1,77.1,96.4,inactive
Adss (Adenylosuccinate synthetase),1,201,340,inactive
